# The campaign covered roughly 330,000 compounds. About 1,000 (0.3%) were called active. The inconclusive results got no clear call from the source; some entries with a clear call stand among them for comparison. The call rests on the fitted dose curve; in most records, active means well fitted inhibition curve with a large enough effect; inconclusive means small, poorly fitted or top-dose-only effect; inactive means no such curve, though single readings can be large or run the other way; tested in mouse RAW 264.7 cells. Where the call is inconclusive, the potency comes from a doubtful curve fit.
# Assay: qHTS for Inhibitors of Cell Surface uPA Generation; further: nearly all actives have a fitted effect of over 55% in size
# Conditions: cell surface uPA generation assay; series mostly up to 38.3 µM; activity change, negative = inhibition: at the top concentration
# Outline: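 ATP-Lite luminescence in RAW 264.7 cells after 24 h of exposure to compound, tested up to 38.3 uM final in 1:5 steps. Raised ATP reflects inhibition of uPA-dependent LF delivery to the cytoplasm.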
# On the % scale 0 is the no-effect control and ±100 the full control effect; potency means the concentration at half of the fitted maximal effect.
Structure (SMILES),Potency,"activity change, negative = inhibition"
COc1ccc(C(=O)Nc2ccccc2C(=O)NCc2cccnc2)cc1,active: 7.08 µM,
CCc1ccccc1N(C)C(=O)CCc1nc(-c2ccc(C)cc2)no1,,inactive: -3.14%
Cc1cc(C(F)(F)F)nn1CC(=O)Nc1cccnc1,,inactive: 12.3%
Cc1ccc(NC(=O)Cn2cnc3c(OCc4ccccc4)ncnc32)cc1C,"inconclusive: 7.08 µM [inhibitor, partial curve, poor fit]",
COc1ccc(CCNC(=O)C2CCCN2C(=O)Nc2ccc(C)cc2)cc1OC (configuration not stated),"inconclusive: 12.6 µM [inhibitor, partial curve, poor fit]",
O=C(C1=C[C@H](C2CCCCC2)C[C@H](OCc2ccc(CO)cc2)O1)N1CCN(Cc2ccccc2)CC1,"inconclusive: 11.2 µM [inhibitor, single point]",
Cc1ccc(NCc2nc3ccccc3n2C)cc1C,,inactive: -1.65%
O=[N+]([O-])/C=C/c1cc2ccccc2[nH]1,"inconclusive: 2.51 µM [inhibitor, partial curve, poor fit]",
CC(C)(C)c1cc(C(=O)N2CCc3ccccc3C2)ccn1,active: 7.94 µM,
COCCCNC(=O)C[C@H]1C[C@H](C(=O)N2CCOCC2)[C@@]2(C)c3[nH]c4ccc(Cl)cc4c3CCN2C1=O,"inconclusive: 11.2 µM [inhibitor, partial curve, poor fit]",
COc1ccccc1Nc1nc(-c2cccc([N+](=O)[O-])c2)cs1,"inconclusive: 10 µM [inhibitor, partial curve, poor fit]",
COc1cc(OC)nc(-n2ncc(Br)c(Br)c2=O)n1,"inconclusive: 3.55 µM [inhibitor, partial curve, poor fit]",
COC(=O)Cn1cnc2c(C#N)c3n(c2c1=O)CCCC3,"inconclusive: 11.2 µM [inhibitor, single point]",
Cc1ccc(NC(=O)C2CCN(S(=O)(=O)c3ccc(F)cc3)CC2)cc1,,inactive: 4.09%
CCOC(=O)c1nsnc1NCCSC(=N)N,"inconclusive: 11.2 µM [inhibitor, partial curve, poor fit]",
Cc1ccc(C)c(N2CCN(C(=O)Nc3ccc4c(c3)N(C)C(=O)CS4)CC2)c1,"inconclusive: 12.6 µM [inhibitor, single point]",
CCC1COCCS(=O)(=O)N1Cc1cccc(C(F)(F)F)c1 (configuration not stated),,inactive: 14.7%
COc1cc(OC)cc(-c2cc3ccc(F)cc3cn2)c1,"inconclusive: 8.91 µM [inhibitor, partial curve, poor fit]",
CC(=O)c1c(C)[nH]c(C(=O)Nc2cccc(C)n2)c1C,"inconclusive: 14.1 µM [inhibitor, single point]",
CC(C)C[C@H](NC(=O)c1nc[nH]c1C(=O)NCc1ccc(CNC(=O)OC(C)(C)C)cc1)C(=O)OC(C)(C)C,"inconclusive: 28.2 µM [inhibitor, single point]",
O=C(CN1CCN(CC(=O)Nc2ccc(OCc3ccccc3)cc2)CC1)Nc1ccc(F)cc1,"inconclusive: 7.94 µM [inhibitor, partial curve, poor fit]",

# Of the compounds above, these contain a nitro group on carbon.
Structure (SMILES),Potency,"activity change, negative = inhibition"
O=[N+]([O-])/C=C/c1cc2ccccc2[nH]1,"inconclusive: 2.51 µM [inhibitor, partial curve, poor fit]",
COc1ccccc1Nc1nc(-c2cccc([N+](=O)[O-])c2)cs1,"inconclusive: 10 µM [inhibitor, partial curve, poor fit]",

# The list goes on.

Structure (SMILES),Potency,"activity change, negative = inhibition"
CCCCCCCNC1=CC(=O)CC(c2ccccc2)C1 (configuration not stated),active: 8.91 µM,
O=C(NCC1CCCO1)c1cc(-c2ccccc2F)no1 (configuration not stated),"inconclusive: 8.91 µM [inhibitor, partial curve, poor fit]",
COc1ccc2c(c1)[C@H]1[C@H](CO2)[C@H](c2ccccc2)[C@]2(C)C(=O)Nc3ccc(F)cc3C(=O)N12,"inconclusive: 28.2 µM [inhibitor, single point]",
O=C(c1ccc2c3n(nc2c1)-c1ccccc1CO3)N1CCCCC1,active: 4.47 µM,
Cc1oc2cc3c(C(=O)N4CCCCC4)c(C)oc3cc2c1C(=O)N1CCCCC1,"inconclusive: 12.6 µM [inhibitor, single point]",
Cc1cccc2cc3c(N)c(C(=O)Nc4ccc(N5CCOCC5)cc4)sc3nc12,"inconclusive: 10 µM [inhibitor, single point]",
Cc1ccc(OCC(=O)Nc2cccc(S(=O)(=O)NC3=NCCCCC3)c2)cc1C,"inconclusive: 8.91 µM [inhibitor, partial curve, poor fit]",
CSc1nc2ccc(NC(=O)c3cc4ccccc4o3)cc2s1,,inactive: -6.49%
Fc1ccc(-[n+]2nc(Nc3ccccc3)sc2-c2c(Cl)cccc2Cl)cc1,"inconclusive: 8.91 µM [inhibitor, single point]",
CN1CCN(c2ccccc2NC(=O)Cc2cn(C)c3ccccc23)CC1,"inconclusive: 14.1 µM [inhibitor, single point]",
Cc1cc(Nc2nc3ccccc3nc2Cl)n(-c2ccccc2C)n1,"inconclusive: 2.51 µM [inhibitor, partial curve, poor fit]",
CCC(=O)N1CCc2cc(S(=O)(=O)NCCC(=O)N3CCN(c4cccc(OC)c4)CC3)ccc21,"inconclusive: 12.6 µM [inhibitor, single point]",
O=C(c1cc(Br)ccc1Cl)N1CCN(c2ccc(N3CCOCC3)nn2)CC1,"inconclusive: 5.01 µM [inhibitor, partial curve, poor fit]",
O=C(CCN1CCN(C(c2ccccc2)c2ccccc2)CC1)N/N=C/c1ccc(O)cc1O,,inactive: -6.72%
COc1ccc2nc(NC(=O)c3cccc(N4C(=O)CCC4=O)c3)sc2c1,active: 4.47 µM,
Cc1ccc(CC2CC(=O)N(c3nc4ccccc4n3C)C2=O)cc1 (configuration not stated),,inactive: 3.24%
COc1ccc(/C=C/c2ccccc2)cc1[C@H]1[C@@H]2C=CCC[C@@]2(C)C(=O)N1Cc1ccccc1,"inconclusive: 11.2 µM [inhibitor, partial curve, poor fit]",
COc1ccc(-c2noc(N3CCC(C(=O)NC(C)c4ccccc4)CC3)n2)cc1 (configuration not stated),"inconclusive: 14.1 µM [inhibitor, partial curve, poor fit]",
O=C(NCc1ccccc1)Nc1cccn(Cc2c(F)cccc2Cl)c1=O,"inconclusive: 28.2 µM [inhibitor, single point]",
CN(c1ccccc1)S(=O)(=O)c1cccc(C(=O)NCc2ccccc2)c1,,inactive: -24.8%
CCc1cccc(NC(=O)c2cccc3c2C(=O)N(CC2CCCO2)C3)c1 (configuration not stated),"inconclusive: 8.91 µM [inhibitor, partial curve, poor fit]",
